For orientation: IC50 means the concentration that gives 50% inhibition. Lower therefore signals greater potency in that assay.

In the experiment the test system is NCI-H460. As to the kind of experiment: Growth inhibition of human H460 cells after 72 hrs by methylene blue dye assay. It counts as functional, cell-based. As to conditions: NCI-H460, 72 h.

In turn, `COc1cc2c(c(OC)c1OC)-c1ccc(OC)c(=O)cc1[C@@H](NC(C)=O)CC2` [COLCHICINE] displayed an IC50 of 0.0202 µM.

The values above are taken from ChEMBL document CHEMBL1155109, “Discovery of 4-amino and 4-hydroxy-1-aroylindoles as potent tubulin polymerization inhibitors” (J Med Chem, 2008).
